Laboratory results taken from the RepoRT retention time repository (doi:10.1007/s11306-011-0298-z).

Test: RP, Waters ACQUITY UPLC HSS T3, 100 × 2.1 mm, 1.8 µm, 30 °C, 0.3 mL/min, estimated dead time 0.73 min; A: water + 0.1% formic acid, pH 3; B: methanol + 0.1% formic acid, pH 3; gradient (min/%B) 0/0 6/0 56/100 60/100
Details: stereoisomer not certain

LC retention time | Compound
39.1 min | O=C(c1ccccc1)c1ccccc1 [benzophenone]
2.29 min | O=C(O)C1=CC(O)C(O)C(O)C1 (configuration not stated) [shikimic acid]
